We go through 1 substance from article PMC5688124.

Amino acid sequences for entries named in this document (tags omitted).
UniProt Q9UKT5: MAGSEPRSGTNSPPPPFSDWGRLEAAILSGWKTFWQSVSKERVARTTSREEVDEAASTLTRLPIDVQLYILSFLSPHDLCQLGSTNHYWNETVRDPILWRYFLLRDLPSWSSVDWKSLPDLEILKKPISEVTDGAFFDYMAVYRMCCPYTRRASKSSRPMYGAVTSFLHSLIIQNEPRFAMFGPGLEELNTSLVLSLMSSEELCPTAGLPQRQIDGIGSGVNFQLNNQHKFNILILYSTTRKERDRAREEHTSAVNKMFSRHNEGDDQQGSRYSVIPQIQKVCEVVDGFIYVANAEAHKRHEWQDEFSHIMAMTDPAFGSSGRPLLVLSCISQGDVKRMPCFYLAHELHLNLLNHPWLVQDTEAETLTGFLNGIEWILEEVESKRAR
UniProt Q61584: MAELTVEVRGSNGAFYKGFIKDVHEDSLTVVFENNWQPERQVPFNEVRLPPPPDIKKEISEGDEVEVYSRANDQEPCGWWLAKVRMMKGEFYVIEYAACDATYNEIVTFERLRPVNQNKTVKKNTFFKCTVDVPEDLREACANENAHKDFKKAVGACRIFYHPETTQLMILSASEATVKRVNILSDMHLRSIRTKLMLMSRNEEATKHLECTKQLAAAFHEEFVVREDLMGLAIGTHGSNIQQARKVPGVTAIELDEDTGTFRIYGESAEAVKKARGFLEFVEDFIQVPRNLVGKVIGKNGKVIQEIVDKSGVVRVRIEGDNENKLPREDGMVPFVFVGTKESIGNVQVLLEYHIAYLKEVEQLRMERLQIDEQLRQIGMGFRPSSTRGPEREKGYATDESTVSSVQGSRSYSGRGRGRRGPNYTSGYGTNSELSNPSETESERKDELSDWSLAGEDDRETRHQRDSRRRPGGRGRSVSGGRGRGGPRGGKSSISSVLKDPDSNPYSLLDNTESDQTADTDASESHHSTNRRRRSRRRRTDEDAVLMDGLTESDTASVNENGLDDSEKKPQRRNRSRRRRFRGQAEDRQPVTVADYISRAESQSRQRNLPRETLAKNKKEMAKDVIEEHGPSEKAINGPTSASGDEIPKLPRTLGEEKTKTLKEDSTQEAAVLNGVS

These are yes or no findings as the source states them, for the method shown. Binding seen in cells or lysates may run through a third protein. Here binding means that the protein was enriched with, or labelled near, the bait; the list need not be complete.

The target in this assay is Flag-Fbxo4 (in reconstituted Fbxo4−/− MEFs) (UniProt Q9UKT5). The assay can be described thus: affinity purification with mass spectrometry; Fbxo4−/− MEFs reconstituted with Flag-Fbxo4 or Flag-Fbxo4ΔF, treated +/− MG-132 for 6 h, immuno-affinity purification, co-purified proteins identified by LC-MS/MS.

On to “Fxr1 (co-purified from MEFs) (from UniProt Q61584 1-677)”, for which the binding result is reported as “binds”.
